## Primary screen of a compound library

Protein sequences, listed by entry. Tags and fused reporters are not part of them. Residues count along the entry.
UniProt P9WNZ1, whole entry: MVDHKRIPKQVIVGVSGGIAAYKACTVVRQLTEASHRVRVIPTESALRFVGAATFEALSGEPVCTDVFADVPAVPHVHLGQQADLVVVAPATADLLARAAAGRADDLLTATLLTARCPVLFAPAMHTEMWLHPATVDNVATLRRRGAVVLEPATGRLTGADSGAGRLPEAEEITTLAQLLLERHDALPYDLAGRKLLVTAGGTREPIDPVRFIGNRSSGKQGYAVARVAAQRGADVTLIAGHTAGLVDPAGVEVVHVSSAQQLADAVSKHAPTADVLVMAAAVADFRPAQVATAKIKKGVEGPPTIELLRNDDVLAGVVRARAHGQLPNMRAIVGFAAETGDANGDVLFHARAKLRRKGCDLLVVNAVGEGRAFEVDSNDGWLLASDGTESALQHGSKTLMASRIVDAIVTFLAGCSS
UniProt Q8IDJ8, 1-583: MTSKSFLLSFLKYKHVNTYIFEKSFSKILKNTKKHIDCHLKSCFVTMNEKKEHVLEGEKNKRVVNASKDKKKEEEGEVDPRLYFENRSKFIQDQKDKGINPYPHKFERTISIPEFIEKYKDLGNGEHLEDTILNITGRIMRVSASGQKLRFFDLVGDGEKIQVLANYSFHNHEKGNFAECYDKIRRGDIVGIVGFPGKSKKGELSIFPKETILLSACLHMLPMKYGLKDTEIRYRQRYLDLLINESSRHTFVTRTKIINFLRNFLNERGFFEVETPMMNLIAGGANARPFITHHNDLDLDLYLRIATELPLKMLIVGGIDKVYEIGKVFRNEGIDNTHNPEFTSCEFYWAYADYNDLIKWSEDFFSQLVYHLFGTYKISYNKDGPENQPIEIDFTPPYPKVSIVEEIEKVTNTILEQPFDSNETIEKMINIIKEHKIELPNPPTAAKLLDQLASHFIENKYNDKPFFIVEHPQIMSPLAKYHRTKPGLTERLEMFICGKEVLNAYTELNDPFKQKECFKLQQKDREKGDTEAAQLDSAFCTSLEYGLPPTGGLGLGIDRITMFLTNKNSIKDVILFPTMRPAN
UniProt A4I591, 1-473: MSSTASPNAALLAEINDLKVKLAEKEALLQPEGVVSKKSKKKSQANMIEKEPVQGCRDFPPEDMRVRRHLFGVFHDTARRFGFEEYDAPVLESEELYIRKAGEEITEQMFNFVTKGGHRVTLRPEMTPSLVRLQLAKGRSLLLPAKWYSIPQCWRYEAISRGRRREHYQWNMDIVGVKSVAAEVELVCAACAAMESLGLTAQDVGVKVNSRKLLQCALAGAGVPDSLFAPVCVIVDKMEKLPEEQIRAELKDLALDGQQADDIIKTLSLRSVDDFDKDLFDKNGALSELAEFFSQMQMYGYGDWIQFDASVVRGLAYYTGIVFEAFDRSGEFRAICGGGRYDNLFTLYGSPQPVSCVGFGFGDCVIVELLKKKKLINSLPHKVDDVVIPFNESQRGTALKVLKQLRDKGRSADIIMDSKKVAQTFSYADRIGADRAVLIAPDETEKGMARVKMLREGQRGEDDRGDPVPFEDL

Measurements from “University of Dundee, Small-Polar-MMV Screening Library” (2021), ChEMBL document CHEMBL3988442.

CoaBC: 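Enzyme assay of CoaBC with a phosphate dye (Biomol Green) read at 650 nm. Target: Coenzyme A biosynthesis protein CoaBC, Mycobacterium tuberculosis (UniProt P9WNZ1). Concentration: 30 µM. Higher reads as stronger inhibition, judged from the few compounds that gave an IC50. Most strong results did not repeat in a second test. About 67,000 compounds were tested under these conditions; 0.06% (about 40) showed 50% or more at least once.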
PfKRS1: 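Lysine-tRNA ligase, Plasmodium falciparum 3D7 (UniProt Q8IDJ8). Enzyme assay of the cytosolic lysyl-tRNA synthetase in 384-well plates, read by luminescence. Compounds at 30 µM. Higher reads as stronger inhibition, judged from the few compounds that gave an IC50. About 69,000 compounds were tested under these conditions; 0.071% (about 49) showed 50% or more at least once.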
LiHisRS: 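Histidine-tRNA ligase, Leishmania infantum (UniProt A4I591). Enzyme assay of histidyl-tRNA synthetase; the read-out is not stated. Concentration: 30 µM. Direction is inferred from retests: higher values go with stronger inhibition. The assay is labelled LdHisRS but filed under L. infantum. About 69,000 compounds were tested under these conditions; 0.6% (about 410) showed 50% or more at least once.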

The filed quantity is “Percent Effect” (%). The record does not define 0% and 100%; most values in the screen are far below 50% and negative numbers occur (in some assays of this library far below -100). The compounds are a random part of those screened. Two or more numbers in one place are separate tests of the same structure; such repeats can differ widely. A dash means the value is not listed here; it may have been measured.

| # | SMILES | CoaBC | PfKRS1 | LiHisRS |
|---|---|---|---|---|
| 1 | `CCOC(=O)N1CCN(C(=O)c2snnc2-c2ccc(OC)cc2)CC1` | 4.953% | -0.1692% | 1.099% |
| 2 | `CCC(C)N(C)C(=O)Nc1ccc(N2CCSCC2)cc1C` (stereo not drawn) | 6.013% | 7.906% | 19.48% |
| 3 | `Cc1nccn1C1CCCN(C(=O)CCNc2ncccn2)C1` (stereo not drawn) | 9.033% | -1.742% | 13.04% |
| 4 | `O=C(NC1CC(F)(F)C1)[C@]12COC[C@H]1CN(Cc1ccccc1)C2` | 0.9852% | 4.743% | 24% |
| 5 | `CN1CC=C(CCN(C)C(=O)CCc2ccccc2)CC1` | -2.589% | 2.64% | 15.29% |
| 6 | `Cc1noc2nc(C3CCN(Cc4ccccn4)CC3)cc(C(F)F)c12` | 1.695% | 3.649% | 12.37% |
| 7 | `Cc1cc(-c2ccnn2C)nc(C2CCN(S(C)(=O)=O)CC2)n1` | 10.17% | 1.823% | 16.78% |
| 8 | `CCCNC(=O)c1sccc1N(C)S(=O)(=O)c1ccc(Cl)cc1` | -0.135% | -0.7777% | 8.571% |
| 9 | `Cc1cc(S(=O)(=O)Nc2cccc(-n3cccc3)c2)sc1C(=O)O` | 38.1% & 71.81% | 7.214% | 26.42% |
| 10 | `Cc1nn(C)c2c(NCc3cccnc3)nc(C(C)C)nc12` | -2.411% | 0.4019% | -3.54% |
| 11 | `COCC(C)NC(=O)c1cc(C)n(-c2cccc(OC)c2)c1C` (stereo not drawn) | 2.887% | 1.986% | -10.17% |
| 12 | `CC(C)Oc1ccccc1-c1cc(CN)ccc1F` | 1.282% | 2.791% | 6.838% |
| 13 | `COCC(c1cccc(C(F)(F)F)c1)N(C)C(=O)c1ccoc1` (stereo not drawn) | 5.957% | 1.069% | -10.71% |
| 14 | `CC(C)N(C)C(=O)C1CCN(Cc2cc3c(cc2O)CCC3)CC1` | - | -2.904% | 31.43% |
| 15 | `NC(=O)CC1c2cccnc2C(=O)N1Cc1ccccc1` (stereo not drawn) | 1.35% | 4.029% | 8.247% |
| 16 | `CCc1nn(C)c(Cl)c1CN1CCCC2(C1)CN(C)C(=O)O2` (stereo not drawn) | 2.384% | 4.271% | 13.25% |
| 17 | `Cc1nn(C)c(C)c1-c1cnc(C2CCCN(C)C2)cn1` (stereo not drawn) | -4.089% | 2.168% | 10% |
| 18 | `COCCN1CCC(CNC(=O)Nc2ccc(SC(F)(F)F)cc2)C1` (stereo not drawn) | -0.8739% | 4.545% | 11.57% |
| 19 | `CC(C)C1SCC(=O)Nc2c1c(O)nn2C1CCCC1` (stereo not drawn) | 5.57% | 4.781% | 15.79% |
| 20 | `CCSCCNc1nc2c(s1)c(C)nn2C` | 4.019% | 6.195% | 20.43% |
| 21 | `Cc1csc2c(=O)n(CCN3CCC(c4ccccc4)CC3)cnc12` | 9.268% | 3.167% | 18.33% |
| 22 | `CCCn1ncc(-c2ccnc(NC3CCSC3)n2)c1C` (stereo not drawn) | 1.709% | 1.426% | 1.709% |
| 23 | `CC(CN1CCCCCC1)NCc1nncn1C1CCCCC1` (stereo not drawn) | 3.353% | 0.2856% | 18.18% |
| 24 | `O=C(CN1CCCC(c2ncc[nH]2)C1)NCCCN1CCCCCC1=O` (stereo not drawn) | 4.507% | 4.746% | 3.226% |
| 25 | `CC(C)N(C)Cc1cncc2c1CCN(C(=O)c1cccc(C#N)c1)C2` | -1.903% | 1.387% | 8.772% |
| 26 | `COCCc1noc(CN2CCCC2Cn2cc(C)cn2)n1` (stereo not drawn) | 1.956% | -1.735% | 12.16% |
| 27 | `CN(C)c1cc(C(=O)N2CCN(c3cc(C#N)ccn3)CC2)ccn1` | 2.632% | 1.533% | 17.59% |
| 28 | `CN(C)[C@@H]1CCN(S(=O)(=O)c2cn(C)cn2)[C@H]1Cc1cccnc1` | 0.6452% | 4.246% | 22.22% |
| 29 | `CCN1C(=O)C(c2ccccc2)CC12CCN(c1ncccn1)CC2` (stereo not drawn) | 5.852% | 5.254% | 17.48% |
| 30 | `CC(=O)N1CCCN(Cc2csc(-c3ncccn3)n2)CC1` | 6.073% | 11.6% | 28.57% |
| 31 | `Cc1nccc(C2CCCCN2Cc2cccc(F)c2)n1` (stereo not drawn) | 10.01% | 1.763% | 15.86% |
| 32 | `O=c1[nH]c(NCc2cccc(OC(F)F)c2)nc2c1CCNC2` | 2.233% | 13.19% | 38.3% |
| 33 | `CNc1nc(C2CCCN2C(C)=O)nc2c1CN(CCO)CC2` (stereo not drawn) | -1.214% | 4.398% | 10.14% |
| 34 | `CCN(Cc1cccc2c1OCO2)CC1CCCO1` (stereo not drawn) | 0.495% | 2.909% | 20% |
| 35 | `NC1CCN(C(=O)c2cnc(Cc3c(Cl)cccc3Cl)nc2O)C1` (stereo not drawn) | 4.132% | 0.8258% | 21.33% |
| 36 | `COCc1nc(CNc2cc(C)nc(-c3ccccc3)n2)no1` | -0.4474% | 0.2515% | 5.747% |
| 37 | `O=C1C[C@H]2[C@@H](CCN2C(=O)c2ccc[nH]2)N1CCN1CCCC1` | 2.836% | 2.113% | 8.065% |
| 38 | `CCS(=O)(=O)N1CC[C@@H]2[C@H](CC1)N(Cc1cccc(C)n1)CCS2(=O)=O` | -5.285% | 1.237% | 15.79% |
| 39 | `CN(CCn1nc2ccccn2c1=O)CC(=O)N(C)C1CCCCC1` | 9.855% | 3.04% | 18.09% |
| 40 | `COc1cc(OC)c(-c2nc3c([nH]2)c(C2CC2)nn3C)cc1OC` | 10.98% | -0.02219% | 26.76% |
| 41 | `Cc1nc(CNCc2ccc(N3CCC(CO)CC3)nc2)cs1` | 1.923% | 1.924% | 10.42% |
| 42 | `Cc1[nH]ccc1C(=O)Nc1cccc(CN2CCC(CO)CC2)c1` | 0.4049% | 2.287% | 20% |
| 43 | `COC(=O)C(C)(C)NC(=O)c1cnc(C(C)(C)C)s1` | 4.242% | 5.591% | 14.52% |
| 44 | `COCC(=O)N1CCC2(CC1)COCCN2Cc1ccc(F)cc1` | -7.911% | 6.18% | 17.43% |
| 45 | `COC1COC2(CCN(C(=O)c3ccc4ccccc4c3)CC2)C1` (stereo not drawn) | -2.723% | 6.939% | 11.71% |
| 46 | `Cc1nc(C2CCCN2CC(=O)N(Cc2ccsc2)C2CC2)no1` (stereo not drawn) | 7.42% | 1.47% | 30.77% |
| 47 | `CCN1C[C@@H]2CN(C(=O)NCc3ccccc3)CCC[C@]2(C(=O)O)C1` | 4.303% | 8.149% | 18% |
| 48 | `CN(Cc1nc(-c2cccnc2)no1)C(=O)c1cnc2n1CCCC2` | -0.2439% | 0.428% | 1.667% |
| 49 | `CC(NCC1CCN(CCO)CC1)c1ccc(Cl)cc1` (stereo not drawn) | -33.01% | 4.514% | -41.1% |
| 50 | `Cc1cccc(SC2CCN(C(=O)CCCn3cnnn3)CC2)c1` | 2.795% | 13.31% | 19.57% |
| 51 | `O=C1C(Sc2nnnn2C2CC2)CCN1c1ccccc1Cl` (stereo not drawn) | 2.232% | 2.822% | 5.208% |
| 52 | `CC(CNC(=O)Nc1cn[nH]c1)N1CCc2ccccc2C1` (stereo not drawn) | 8.205% | 5.957% | 10.67% |
| 53 | `COCCN1CCCC12CCN(Cc1cncn1C)CC2` | 1.667% | 4.343% | 19.66% |
| 54 | `COCC1CCN(S(=O)(=O)N2C[C@@H](C)[C@@](C)(O)C2)CC1` | -12.82% | 3.039% | 5.128% |
| 55 | `COCCNC(=O)c1cc(S(=O)(=O)N2CCCCCC2)cs1` | 0.2421% | 0.6287% | 16.49% |
| 56 | `Cc1cc(C(=O)N2CCCC(n3cncn3)C2)c(C)n1C1CC1` (stereo not drawn) | 3.655% | -0.2178% | 2.703% |
| 57 | `O=C(Nc1cnn(CCN2CCOCC2)c1)c1ccccc1Cl` | 4.689% | -0.1895% | 17.86% |
| 58 | `CN(C)CC1(O)CCCN(Cc2ccccc2OCC(=O)N(C)C)C1` (stereo not drawn) | -0.2049% | 4.071% | 12.86% |
| 59 | `N#Cc1cc(N2CCC(CS(N)(=O)=O)CC2)c2ccccc2n1` | -0.7371% | -1.371% | 23.66% |
| 60 | `CSc1ncccc1C(=O)N(C)C(C)Cc1ccccn1` (stereo not drawn) | 8.351% | 4.188% | 11.67% |

Repeated from the top, 6 entries:

| SMILES | CoaBC | PfKRS1 | LiHisRS |
|---|---|---|---|
| `CCOC(=O)N1CCN(C(=O)c2snnc2-c2ccc(OC)cc2)CC1` | 4.953% | -0.1692% | 1.099% |
| `CCC(C)N(C)C(=O)Nc1ccc(N2CCSCC2)cc1C` (stereo not drawn) | 6.013% | 7.906% | 19.48% |
| `Cc1nccn1C1CCCN(C(=O)CCNc2ncccn2)C1` (stereo not drawn) | 9.033% | -1.742% | 13.04% |
| `O=C(NC1CC(F)(F)C1)[C@]12COC[C@H]1CN(Cc1ccccc1)C2` | 0.9852% | 4.743% | 24% |
| `CN1CC=C(CCN(C)C(=O)CCc2ccccc2)CC1` | -2.589% | 2.64% | 15.29% |
| `Cc1noc2nc(C3CCN(Cc4ccccn4)CC3)cc(C(F)F)c12` | 1.695% | 3.649% | 12.37% |